Reference: publication PMC7468131
No constants are given. Whether binding was seen depends on the method and setting. In cells and extracts the contact can be indirect. Sequences can lack the tags named with a protein.

Chains of the proteins cited; added tags and fusions are not shown. Lines headed by an entry give the natural chain unless they say otherwise; changes in a name come on top. A line that says so, or that is headed by a name, gives the form on record, which may keep a tag or linker. Residues count along the entry.
UniProt Q13586: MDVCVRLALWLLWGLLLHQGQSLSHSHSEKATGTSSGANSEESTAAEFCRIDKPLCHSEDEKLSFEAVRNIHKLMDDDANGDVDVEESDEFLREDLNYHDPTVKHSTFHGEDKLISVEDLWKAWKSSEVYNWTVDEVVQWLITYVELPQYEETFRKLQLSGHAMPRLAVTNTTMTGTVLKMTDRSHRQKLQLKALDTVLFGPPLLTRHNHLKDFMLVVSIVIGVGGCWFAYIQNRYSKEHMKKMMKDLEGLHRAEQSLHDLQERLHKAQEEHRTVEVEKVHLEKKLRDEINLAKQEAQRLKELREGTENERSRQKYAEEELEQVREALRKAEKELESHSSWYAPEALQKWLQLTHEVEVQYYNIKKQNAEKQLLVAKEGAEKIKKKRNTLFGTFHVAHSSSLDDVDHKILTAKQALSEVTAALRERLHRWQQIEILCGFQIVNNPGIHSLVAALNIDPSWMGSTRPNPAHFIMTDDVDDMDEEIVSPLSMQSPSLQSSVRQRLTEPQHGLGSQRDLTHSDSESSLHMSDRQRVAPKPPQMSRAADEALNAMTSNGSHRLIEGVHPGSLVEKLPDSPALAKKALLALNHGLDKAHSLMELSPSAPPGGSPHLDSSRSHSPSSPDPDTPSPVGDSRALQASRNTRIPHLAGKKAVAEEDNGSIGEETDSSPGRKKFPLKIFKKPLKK
GST-tagged STIM1 fragment a.a. 1-249: residues 23-249 of Q13586
GST-tagged STIM1 fragment a.a. 250-400: residues 250-400 of Q13586
GST-tagged STIM1 fragment a.a. 324-448: residues 324-448 of Q13586
GST-tagged STIM1 fragment a.a. 400-600: residues 400-600 of Q13586
GST-tagged STIM1 fragment a.a. 600-685: residues 600-685 of Q13586

Tests used:
Experiment in all cases: pull-down; 20 ug of GST-tagged fragments of STIM1 (from E. coli, on glutathione beads) as bait, incubated 6 h with lysates of transfected HEK293T cells; binding buffer 0.5% Igepal CA-630, 20 mM Tris-HCl, 100 mM NaCl, 2 mM EDTA, 10% glycerol, pH 7.5; only the target purified
[1] = molecular target: GST-tagged STIM1 fragment a.a. 600-685 (UniProt Q13586)
[2] = molecular target: GST-tagged STIM1 fragment a.a. 1-249 (UniProt Q13586)
[3] = molecular target: GST-tagged STIM1 fragment a.a. 250-400 (UniProt Q13586)
[4] = molecular target: GST-tagged STIM1 fragment a.a. 324-448 (UniProt Q13586)
[5] = molecular target: GST-tagged STIM1 fragment a.a. 400-600 (UniProt Q13586)

binding [1]: no binding
binding [2]: no binding
binding [3]: no binding
binding [4]: no binding
binding [5]: no binding
B1: FLAG-tagged E-Syt1 (protein, UniProt Q9BSJ8 1-1104)
chain: MERSPGEGPSPSPMDQPSAPSDPTDQPPAAHAKPDPGSGGQPAGPGAAGEALAVLTSFGRRLLVLIPVYLAGAVGLSVGFVLFGLALYLGWRRVRDEKERSLRAARQLLDDEEQLTAKTLYMSHRELPAWVSFPDVEKAEWLNKIVAQVWPFLGQYMEKLLAETVAPAVRGSNPHLQTFTFTRVELGEKPLRIIGVKVHPGQRKEQILLDLNISYVGDVQIDVEVKKYFCKAGVKGMQLHGVLRVILEPLIGDLPFVGAVSMFFIRRPTLDINWTGMTNLLDIPGLSSLSDTMIMDSIAAFLVLPNRLLVPLVPDLQDVAQLRSPLPRGIIRIHLLAARGLSSKDKYVKGLIEGKSDPYALVRLGTQTFCSRVIDEELNPQWGETYEVMVHEVPGQEIEVEVFDKDPDKDDFLGRMKLDVGKVLQASVLDDWFPLQGGQGQVHLRLEWLSLLSDAEKLEQVLQWNWGVSSRPDPPSAAILVVYLDRAQDLPLKKGNKEPNPMVQLSIQDVTQESKAVYSTNCPVWEEAFRFFLQDPQSQELDVQVKDDSRALTLGALTLPLARLLTAPELILDQWFQLSSSGPNSRLYMKLVMRILYLDSSEICFPTVPGCPGAWDVDSENPQRGSSVDAPPRPCHTTPDSQFGTEHVLRIHVLEAQDLIAKDRFLGGLVKGKSDPYVKLKLAGRSFRSHVVREDLNPRWNEVFEVIVTSVPGQELEVEVFDKDLDKDDFLGRCKVRLTTVLNSGFLDEWLTLEDVPSGRLHLRLERLTPRPTAAELEEVLQVNSLIQTQKSAELAAALLSIYMERAEDLPLRKGTKHLSPYATLTVGDSSHKTKTISQTSAPVWDESASFLIRKPHTESLELQVRGEGTGVLGSLSLPLSELLVADQLCLDRWFTLSSGQGQVLLRAQLGILVSQHSGVEAHSHSYSHSSSSLSEEPELSGGPPHITSSAPELRQRLTHVDSPLEAPAGPLGQVKLTLWYYSEERKLVSIVHGCRSLRQNGRDPPDPYVSLLLLPDKNRGTKRRTSQKKRTLSPEFNERFEWELPLDEAQRRKLDVSVKSNSSFMSRERELLGKVQLDLAETDLSQGVARWYDLMDNKDKGSS
